Data from paper doi:10.1101/2025.10.06.680735, “JMJD1B-mediated FEN1 demethylation allows timely switching of Okazaki fragment maturation core enzymes to avoid mutagenic flap ligation by PARP1-LIG3” (bioRxiv, 2025).
These are yes or no findings as the source states them, for the method shown. For part of these data: Binding seen in cells or lysates may run through a third protein. Some binding calls cover weakened binding; strength is not graded here. Values belong to the molecule of their own block, whether it stands above or below them.

Protein sequences, listed by entry. Tags and fused reporters are not part of them.
UniProt P39748: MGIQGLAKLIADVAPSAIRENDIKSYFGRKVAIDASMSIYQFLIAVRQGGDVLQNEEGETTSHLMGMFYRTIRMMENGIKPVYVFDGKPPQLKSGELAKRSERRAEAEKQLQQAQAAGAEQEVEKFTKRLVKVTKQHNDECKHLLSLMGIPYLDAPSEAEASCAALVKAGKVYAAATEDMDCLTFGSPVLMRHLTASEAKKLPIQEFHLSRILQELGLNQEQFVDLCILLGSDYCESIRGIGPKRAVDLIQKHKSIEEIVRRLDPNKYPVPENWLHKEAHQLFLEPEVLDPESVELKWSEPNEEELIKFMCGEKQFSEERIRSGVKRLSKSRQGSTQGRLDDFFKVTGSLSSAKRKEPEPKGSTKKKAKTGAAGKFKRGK
UniProt P17918: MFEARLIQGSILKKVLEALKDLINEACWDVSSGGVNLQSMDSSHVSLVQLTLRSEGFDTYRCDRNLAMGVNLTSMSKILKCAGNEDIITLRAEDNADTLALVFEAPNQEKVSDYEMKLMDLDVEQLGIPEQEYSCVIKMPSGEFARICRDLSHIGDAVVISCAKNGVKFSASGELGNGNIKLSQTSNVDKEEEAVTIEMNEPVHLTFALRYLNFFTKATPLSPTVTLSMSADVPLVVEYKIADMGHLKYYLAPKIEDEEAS
UniProt Q7LBC6: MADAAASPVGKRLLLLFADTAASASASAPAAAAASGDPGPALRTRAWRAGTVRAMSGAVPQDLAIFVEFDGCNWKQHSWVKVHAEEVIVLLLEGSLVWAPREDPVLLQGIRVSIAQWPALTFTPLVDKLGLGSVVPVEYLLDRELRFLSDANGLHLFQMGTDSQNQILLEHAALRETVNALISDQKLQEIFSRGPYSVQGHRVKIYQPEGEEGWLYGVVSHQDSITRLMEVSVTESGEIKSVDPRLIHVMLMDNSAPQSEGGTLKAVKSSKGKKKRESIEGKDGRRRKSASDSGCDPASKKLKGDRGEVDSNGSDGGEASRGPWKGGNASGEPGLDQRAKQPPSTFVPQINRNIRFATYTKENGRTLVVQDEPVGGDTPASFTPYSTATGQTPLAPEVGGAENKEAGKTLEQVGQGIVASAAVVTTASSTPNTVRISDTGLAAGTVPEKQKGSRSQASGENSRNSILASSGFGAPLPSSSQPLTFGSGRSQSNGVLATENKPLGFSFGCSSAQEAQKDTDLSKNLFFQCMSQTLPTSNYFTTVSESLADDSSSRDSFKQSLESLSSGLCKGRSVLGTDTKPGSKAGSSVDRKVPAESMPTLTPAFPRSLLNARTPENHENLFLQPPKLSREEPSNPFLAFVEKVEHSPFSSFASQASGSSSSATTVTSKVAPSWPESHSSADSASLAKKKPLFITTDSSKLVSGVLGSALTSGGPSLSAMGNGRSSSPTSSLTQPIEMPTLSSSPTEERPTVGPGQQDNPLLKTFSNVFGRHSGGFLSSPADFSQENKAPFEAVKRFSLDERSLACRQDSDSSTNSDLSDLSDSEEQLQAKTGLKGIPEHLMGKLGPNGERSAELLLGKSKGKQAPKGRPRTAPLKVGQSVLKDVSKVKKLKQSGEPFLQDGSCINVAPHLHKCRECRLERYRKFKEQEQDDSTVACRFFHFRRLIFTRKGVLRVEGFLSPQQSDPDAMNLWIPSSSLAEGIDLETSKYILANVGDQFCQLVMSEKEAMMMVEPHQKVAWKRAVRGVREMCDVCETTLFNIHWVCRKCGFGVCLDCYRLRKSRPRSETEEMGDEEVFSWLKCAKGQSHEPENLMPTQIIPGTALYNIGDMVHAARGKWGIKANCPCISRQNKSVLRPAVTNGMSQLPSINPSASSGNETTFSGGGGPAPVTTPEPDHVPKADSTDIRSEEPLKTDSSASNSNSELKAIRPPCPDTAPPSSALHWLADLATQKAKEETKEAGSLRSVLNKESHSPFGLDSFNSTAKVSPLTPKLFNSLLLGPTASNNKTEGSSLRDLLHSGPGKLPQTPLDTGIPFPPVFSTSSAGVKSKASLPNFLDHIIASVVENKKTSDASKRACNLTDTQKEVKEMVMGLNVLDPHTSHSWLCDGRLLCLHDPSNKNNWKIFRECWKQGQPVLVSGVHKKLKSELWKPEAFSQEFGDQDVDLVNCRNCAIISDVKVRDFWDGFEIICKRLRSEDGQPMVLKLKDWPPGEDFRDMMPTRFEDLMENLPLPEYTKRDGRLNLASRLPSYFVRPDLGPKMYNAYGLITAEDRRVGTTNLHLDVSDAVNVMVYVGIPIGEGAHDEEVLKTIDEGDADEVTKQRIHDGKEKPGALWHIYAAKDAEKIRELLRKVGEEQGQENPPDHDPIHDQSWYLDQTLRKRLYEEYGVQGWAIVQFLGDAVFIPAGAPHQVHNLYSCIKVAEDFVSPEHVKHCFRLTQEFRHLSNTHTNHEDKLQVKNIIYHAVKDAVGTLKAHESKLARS

Assays:
[1] = biological target: Flap endonuclease 1 (FEN1) (human (endogenous in HeLa)) (UniProt P39748); test: co-IP; endogenous FEN1 immunoprecipitated (anti-FEN1, Genetex) from mimosine-synchronized HeLa cells released into S phase for 0, 4 or 8 h; IP buffer 50 mM HEPES-KOH pH 7.4, 150 mM NaCl, 0.1% NP40, 10% glycerol; immuno-blot for JMJD1B
[2] = biological target: purified recombinant FEN1 (UniProt P39748); test: pull-down; BSA, FEN1 or JMJD1B immobilized on cyanogen-bromide-activated Sepharose beads; 100 ng purified JMJD1B on FEN1 beads or 40 ng purified FEN1 on JMJD1B beads; 50 mM Hepes, 100 mM NaCl, 1% BSA, 1 mM DTT, 10% glycerol, pH 7.5, 4°C overnight; immuno-blot; both purified
[3] = biological target: proliferating cell nuclear antigen (PCNA), in MEFs (mouse (endogenous in MEFs)) (UniProt P17918); test: proximity ligation; Duolink PLA on endogenous proteins in fixed Jmjd1b-/- MEFs; foci per nucleus

- binding [1]: binds
Molecule: JMJD1B (also known as KDM3B) (from UniProt Q7LBC6 1-1761) (enzyme)

- binding [2]: binds
Molecule: purified recombinant JMJD1B (from UniProt Q7LBC6 1-1761) (enzyme)

- binding [3]: binds
B1: DNA ligase 1 (LIG1), in MEFs (enzyme, mouse (endogenous in MEFs), UniProt P37913 1-916, looked up)
chain: MQRSIMSFFQPTKEGKAKKPEKETPSSIREKEPPPKVALKERNQVVPESDSPVKRTGRKVAQVLSCEGEDEDEAPGTPKVQKPVSDSEQSSPPSPDTCPENSPVFNCSSPMDISPSGFPKRRTARKQLPKRTIQDTLEEQNEDKTKTAKKRKKEEETPKESLAEAEDIKQKEEKEGDQLIVPSEPTKSPESVTLTKTENIPVCKAGVKLKPQEEEQSKPPARGAKTLSSFFTPRKPAVKTEVKQEESGTLRKEETKGTLDPANYNPSKNNYHPIEDACWKHGQKVPFLAVARTFEKIEEVSARLKMVETLSNLLRSVVALSPPDLLPVLYLSLNRLGPPQQGLELGVGDGVLLKAVAQATGRQLESIRAEVAEKGDVGLVAENSRSTQRLMLPPPPLTISGVFTKFCDIARLTGSASMAKKMDIIKGLFVACRHSEARYIARSLSGRLRLGLAEQSVLAALAQAVSLTPPGQEFPTVVVDAGKGKTAEARKMWLEEQGMILKQTFCEVPDLDRIIPVLLEHGLERLPEHCKLSPGVPLKPMLAHPTRGVSEVLKRFEEVDFTCEYKYDGQRAQIHVLEGGEVKIFSRNQEDNTGKYPDIISRIPKIKHPSVTSFILDTEAVAWDREKKQIQPFQVLTTRKRKEVDASEIQVQVCLYAFDLIYLNGESLVRQPLSRRRQLLRENFVETEGEFVFTTSLDTKDTEQIAEFLEQSVKDSCEGLMVKTLDVDATYEIAKRSHNWLKLKKDYLDGVGDTLDLVVIGAYLGRGKRAGRYGGFLLAAYDEESEELQAICKLGTGFSDEELEEHHQSLQALVLPTPRPYVRIDGAVAPDHWLDPSIVWEVKCADLSLSPIYPAARGLVDKEKGISLRFPRFIRVRKDKQPEQATTSNQVASLYRKQSQIQNQQSSDLDSDVEDY
notes: DNA ligase 1, mouse, endogenous in MEFs; source: endogenous, mouse embryonic fibroblasts (fixed cells)
